Data from patent US20250388565A1, “ESTROGEN RECEPTOR ALPHA DEGRADERS AND METHODS OF USE THEREOF” (Relay Therapeutics, Inc., priority 2022, published 2025).

Amino acid sequences for entries named in this document (tags omitted).
UniProt P03372, whole entry: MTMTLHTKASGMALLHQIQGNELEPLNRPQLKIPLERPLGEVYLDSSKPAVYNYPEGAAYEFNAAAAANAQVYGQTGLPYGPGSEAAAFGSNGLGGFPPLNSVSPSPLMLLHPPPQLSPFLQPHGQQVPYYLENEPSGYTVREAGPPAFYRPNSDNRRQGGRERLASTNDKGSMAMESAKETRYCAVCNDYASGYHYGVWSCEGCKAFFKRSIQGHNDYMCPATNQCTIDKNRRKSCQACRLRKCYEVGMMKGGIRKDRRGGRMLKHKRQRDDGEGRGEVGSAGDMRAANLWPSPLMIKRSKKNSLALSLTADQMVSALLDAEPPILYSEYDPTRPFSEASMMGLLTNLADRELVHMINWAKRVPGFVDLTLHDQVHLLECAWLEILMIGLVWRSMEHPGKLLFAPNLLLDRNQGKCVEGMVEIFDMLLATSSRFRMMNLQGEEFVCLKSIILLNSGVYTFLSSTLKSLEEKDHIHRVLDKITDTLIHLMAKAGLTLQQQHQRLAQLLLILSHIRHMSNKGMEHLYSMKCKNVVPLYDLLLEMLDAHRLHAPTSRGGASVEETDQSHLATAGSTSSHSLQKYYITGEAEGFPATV

Biological target: ERα protein (HiBiT-tagged) in ESR1_HiBiT KI MCF7 cells (Homo sapiens, UniProt P03372)
Test: Nano Glo HiBiT Lytic Degradation Assay
Format: cell-based
Settings: read-out: MCF7 ESR1 HiBiT - (DC50), 6 hours with compound, 14-point dose response 1:3, bell-shape curve fit, half-maximal effect of first Hill model

SMILES: COC(OC)C1CCN(c2cc(C)c([C@@H]3c4ccc(O)cc4CC[C@@H]3C3CCCCC3)c(F)c2)CC1
- DC50: ≥ 10000 nM

SMILES: Cc1ccc(F)cc1[C@@H]1OCc2cc(O)ccc2[C@@H]1c1ccc(N2CCC(CN3CCN(c4ccc5c(c4)CN([C@H]4CCC(=O)NC4=O)C5=O)CC3)CC2)cc1
- DC50: 6 nM

Structures were worked out from names or drawings and are uncertain.
